How the values were obtained:
Test in all cases: relative viability (nuclei count vs DMSO), 5 days (fraction); higher = more cells survive
[1] = compound: CN[C@@H]1C[C@H]2O[C@@](C)([C@@H]1OC)n1c3ccccc3c3c4c(c5c6ccccc6n2c5c31)C(=O)NC4 [Staurosporine] + CC1(C)CCC(c2ccc(Cl)cc2)=C(CN2CCN(c3ccc(C(=O)NS(=O)(=O)c4ccc(N[C@H](CCN5CCOCC5)CSc5ccccc5)c(S(=O)(=O)C(F)(F)F)c4)cc3)CC2)C1 [Navitoclax] (partner 0.5 µM)
Outline: (§1)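 Relative viability divides the nuclei count in treated wells by that in vehicle wells. Lung cancer cell lines were seeded in 1536-well plates, dosed by pin tool the next day, and fixed and stained after 5 days in one step with final 0.05% Triton X-100, 1% formaldehyde and 1 ug/ml Hoechst. Dosing was a single drug or a fixed anchor-drug dose plus five library-drug doses (not always all listed) in √10 steps, and values are medians of duplicate plates imaged at 4×.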

[2] = compound: CN[C@@H]1C[C@H]2O[C@@](C)([C@@H]1OC)n1c3ccccc3c3c4c(c5c6ccccc6n2c5c31)C(=O)NC4 [Staurosporine] + C[C@@H](Oc1cc(-c2cnn(C3CCNCC3)c2)cnc1N)c1c(Cl)ccc(F)c1Cl [Crizotinib] (partner 1 µM)
Outline: as §1

Staurosporine + AZD7762 = compound: CN[C@@H]1C[C@H]2O[C@@](C)([C@@H]1OC)n1c3ccccc3c3c4c(c5c6ccccc6n2c5c31)C(=O)NC4 [Staurosporine] + NC(=O)Nc1cc(-c2cccc(F)c2)sc1C(=O)N[C@H]1CCCNC1 [AZD7762] (partner 0.2 µM)
Outline: as §1

[3] = compound: CN[C@@H]1C[C@H]2O[C@@](C)([C@@H]1OC)n1c3ccccc3c3c4c(c5c6ccccc6n2c5c31)C(=O)NC4 [Staurosporine] + COc1cc2c(Oc3ccc(NC(=O)C4(C(=O)Nc5ccc(F)cc5)CC4)cc3F)ccnc2cc1OCCCN1CCOCC1 [Foretinib] (partner 0.25 µM)
Outline: as §1

[4] = compound: CN[C@@H]1C[C@H]2O[C@@](C)([C@@H]1OC)n1c3ccccc3c3c4c(c5c6ccccc6n2c5c31)C(=O)NC4 [Staurosporine] + CS(=O)(=O)N1CCN(Cc2cc3nc(-c4cccc5[nH]ncc45)nc(N4CCOCC4)c3s2)CC1 [Pictilisib] (partner 1 µM)
Outline: as §1

[5] = compound: CN[C@@H]1C[C@H]2O[C@@](C)([C@@H]1OC)n1c3ccccc3c3c4c(c5c6ccccc6n2c5c31)C(=O)NC4 [Staurosporine] + CC(=O)Nc1cccc(-n2c(=O)n(C3CC3)c(=O)c3c(Nc4ccc(I)cc4F)n(C)c(=O)c(C)c32)c1 [Trametinib] (partner 0.02 µM)
Outline: as §1

[6] = compound: CN[C@@H]1C[C@H]2O[C@@](C)([C@@H]1OC)n1c3ccccc3c3c4c(c5c6ccccc6n2c5c31)C(=O)NC4 [Staurosporine] + O=C(CCCCCCC(=O)Nc1ccccc1)NO [Vorinostat] (partner 1 µM)
Outline: as §1

[7] = compound: CN[C@@H]1C[C@H]2O[C@@](C)([C@@H]1OC)n1c3ccccc3c3c4c(c5c6ccccc6n2c5c31)C(=O)NC4 [Staurosporine] + N=C(N)NC(=N)NCCc1ccccc1 [Phenformin] (partner 250 µM)
Outline: as §1

[8] = compound: CN[C@@H]1C[C@H]2O[C@@](C)([C@@H]1OC)n1c3ccccc3c3c4c(c5c6ccccc6n2c5c31)C(=O)NC4 [Staurosporine] + CC(=O)c1c(C)c2cnc(Nc3ccc(N4CCNCC4)cn3)nc2n(C2CCCC2)c1=O [Palbociclib] (partner 0.5 µM)
Outline: as §1

[9] = compound: CN[C@@H]1C[C@H]2O[C@@](C)([C@@H]1OC)n1c3ccccc3c3c4c(c5c6ccccc6n2c5c31)C(=O)NC4 [Staurosporine] + Cc1nc(NC(=O)N2CCC[C@H]2C(N)=O)sc1-c1ccnc(C(C)(C)C(F)(F)F)c1 [Alpelisib] (partner 2 µM)
Outline: as §1

Staurosporine = compound: CN[C@@H]1C[C@H]2O[C@@](C)([C@@H]1OC)n1c3ccccc3c3c4c(c5c6ccccc6n2c5c31)C(=O)NC4 [Staurosporine]
Outline: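 Lung cancer cell lines were seeded into 1536-well plates, kept overnight at 37 °C and pinned with five library-drug doses (not always all listed) spaced by √10. After 5 days, nuclei were Hoechst-stained, imaged at 4× and counted with MetaXpress. Viability is treated-well nuclei over vehicle-well nuclei, taken as a median across plates. Plates needed control CV below 25% and at least one doubling.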

[10] = compound: CN[C@@H]1C[C@H]2O[C@@](C)([C@@H]1OC)n1c3ccccc3c3c4c(c5c6ccccc6n2c5c31)C(=O)NC4 [Staurosporine] + Cc1nc(Nc2ncc(C(=O)Nc3c(C)cccc3Cl)s2)cc(N2CCN(CCO)CC2)n1 [Dasatinib] (partner 0.075 µM)
Outline: as §1

Staurosporine + OSI-027 = compound: CN[C@@H]1C[C@H]2O[C@@](C)([C@@H]1OC)n1c3ccccc3c3c4c(c5c6ccccc6n2c5c31)C(=O)NC4 [Staurosporine] + COc1cccc2cc(-c3nc([C@H]4CC[C@H](C(=O)O)CC4)n4ncnc(N)c34)[nH]c12 [OSI-027] (partner 0.5 µM)
Outline: as §1

[11] = compound: CN[C@@H]1C[C@H]2O[C@@](C)([C@@H]1OC)n1c3ccccc3c3c4c(c5c6ccccc6n2c5c31)C(=O)NC4 [Staurosporine] + Cc1cc(Nc2cc(N3CCN(C)CC3)nc(Sc3ccc(NC(=O)C4CC4)cc3)n2)n[nH]1 [Tozasertib] (partner 0.1 µM); settings: first compound 0.5 µM
Outline: as §1

[12] = compound: CN[C@@H]1C[C@H]2O[C@@](C)([C@@H]1OC)n1c3ccccc3c3c4c(c5c6ccccc6n2c5c31)C(=O)NC4 [Staurosporine] + CS(=O)(=O)CCNCc1ccc(-c2ccc3ncnc(Nc4ccc(OCc5cccc(F)c5)c(Cl)c4)c3c2)o1 [Lapatinib] (partner 2 µM); settings: first compound 0.05 µM
Outline: as §1

Staurosporine + Olaparib = compound: CN[C@@H]1C[C@H]2O[C@@](C)([C@@H]1OC)n1c3ccccc3c3c4c(c5c6ccccc6n2c5c31)C(=O)NC4 [Staurosporine] + O=C(c1cc(Cc2n[nH]c(=O)c3ccccc23)ccc1F)N1CCN(C(=O)C2CC2)CC1 [Olaparib] (partner 8 µM); settings: first compound 0.005 µM
Outline: as §1

[13] = compound: CN[C@@H]1C[C@H]2O[C@@](C)([C@@H]1OC)n1c3ccccc3c3c4c(c5c6ccccc6n2c5c31)C(=O)NC4 [Staurosporine] + CC(C)C[C@H](NC(=O)[C@H](Cc1ccccc1)NC(=O)c1cnccn1)B(O)O [Bortezomib] (partner 0.002 µM)
Outline: as §1

[14] = compound: CN[C@@H]1C[C@H]2O[C@@](C)([C@@H]1OC)n1c3ccccc3c3c4c(c5c6ccccc6n2c5c31)C(=O)NC4 [Staurosporine] + C[C@]1(O)C[C@@H](c2nc(-c3ccc4ccc(-c5ccccc5)nc4c3)c3c(N)nccn32)C1 [Linsitinib] (partner 1 µM); settings: first compound 0.005 µM
Outline: as §1

Cell Line: HARA
- relative viability ([1]; first compound 0.005 µM): 1.16
- relative viability ([2]; first compound 0.5 µM): 0.126
- relative viability (Staurosporine + AZD7762; first compound 0.1581 µM): 0.219

Cell Line: NCI-H1915
- relative viability ([3]; first compound 0.005 µM): 1.12
- relative viability ([4]; first compound 0.1581 µM): 0.109

Cell Line: EMC-BAC-2
- relative viability ([5]; first compound 0.5 µM): 0.198
- relative viability ([6]; first compound 0.01581 µM): 0.109

Cell Line: NCI-H2342
- relative viability ([7]; first compound 0.01581 µM): 0.405

Cell Line: NCI-H2023
- relative viability ([3]; first compound 0.01581 µM): 0.383

Cell Line: HCC-44
- relative viability ([5]; first compound 0.1581 µM): 0.332
- relative viability ([8]; first compound 0.005 µM): 1.02

Cell Line: HCC-78
- relative viability ([3]; first compound 0.5 µM): 0.383

Cell Line: BEN
- relative viability ([9]; first compound 0.01581 µM): 1.05

Cell Line: NCI-H1563
- relative viability (Staurosporine; 0.5 µM): 0.486

Cell Line: NCI-H1734
- relative viability ([10]; first compound 0.01581 µM): 0.175
- relative viability ([6]; first compound 0.05 µM): 0.219

Cell Line: NCI-H1793
- relative viability ([4]; first compound 0.5 µM): 0.197

Cell Line: NCI-H2126
- relative viability ([6]; first compound 0.5 µM): 0.219

Cell Line: HCC-827
- relative viability ([1]; first compound 0.01581 µM): 0.871
- relative viability ([9]; first compound 0.1581 µM): 0.642

Cell Line: NCI-H2170
- relative viability ([5]; first compound 0.005 µM): 1.04

Cell Line: NCI-H647
- relative viability ([8]; first compound 0.01581 µM): 0.125

Cell Line: NCI-H3122
- relative viability (Staurosporine + AZD7762; first compound 0.005 µM): 1.07

Cell Line: NCI-H2009
- relative viability (Staurosporine + OSI-027; first compound 0.01581 µM): 0.175

Cell Line: NCI-H1944
- relative viability ([3]; first compound 0.01581 µM): 0.749

Cell Line: NCI-H2085
- relative viability [11]: 0.332
- relative viability ([7]; first compound 0.005 µM): 0.552

Cell Line: LK-2
- relative viability [12]: 0.981
- relative viability ([7]; first compound 0.05 µM): 0.219
- relative viability (Staurosporine + Olaparib): 0.989

Cell Line: NCI-H2405
- relative viability ([8]; first compound 0.1581 µM): 0.129
- relative viability ([3]; first compound 0.05 µM): 0.125
- relative viability (Staurosporine + AZD7762; first compound 0.1581 µM): 0.109
- relative viability (Staurosporine; 0.005 µM): 0.421

Cell Line: NCI-H2347
- relative viability ([9]; first compound 0.5 µM): 0.354

Cell Line: SK-LU-1
- relative viability ([10]; first compound 0.01581 µM): 0.112

Cell Line: ABC-1
- relative viability ([8]; first compound 0.005 µM): 0.454

Cell Line: CAL-12T
- relative viability (Staurosporine; 0.05 µM): 0.208

Cell Line: NCI-H1792
- relative viability ([1]; first compound 0.1581 µM): 0.129
- relative viability ([2]; first compound 0.005 µM): 1.11

Cell Line: NCI-H522
- relative viability ([8]; first compound 0.05 µM): 0.891

Cell Line: EKVX
- relative viability ([13]; first compound 0.1581 µM): 0.208
- relative viability (Staurosporine + AZD7762; first compound 0.5 µM): 0.114

Cell Line: HOP-62
- relative viability (Staurosporine + AZD7762; first compound 0.05 µM): 0.126

Cell Line: NCI-H23
- relative viability ([4]; first compound 0.05 µM): 0.197

Cell Line: NCI-H460
- relative viability ([6]; first compound 0.005 µM): 0.454

Cell Line: NCI-H1975
- relative viability ([13]; first compound 0.5 µM): 0.109
- relative viability (Staurosporine + OSI-027; first compound 0.1581 µM): 0.112

Cell Line: RERF-LC-KJ
- relative viability ([5]; first compound 0.05 µM): 0.421

Cell Line: PC-3 [JPC-3]
- relative viability ([2]; first compound 0.005 µM): 1.11
- relative viability ([10]; first compound 0.005 µM): 0.954
- relative viability ([7]; first compound 0.005 µM): 0.494

Cell Line: NCI-H596
- relative viability (Staurosporine; 0.005 µM): 1.17

Cell Line: NCI-H1437
- relative viability ([2]; first compound 0.05 µM): 0.677
- relative viability [14]: 0.734

Cell Line: IA-LM
- relative viability [14]: 0.494

Cell Line: NCI-H838
- relative viability (Staurosporine + OSI-027; first compound 0.5 µM): 0.126
- relative viability ([6]; first compound 0.5 µM): 0.126

Cell Line: COR-L 105
- relative viability ([2]; first compound 0.05 µM): 0.208

Cell Line: NCI-H358
- relative viability ([6]; first compound 0.005 µM): 0.432

Cell Line: A-427
- relative viability ([1]; first compound 0.5 µM): 0.122

Cell Line: NCI-H322M
- relative viability ([7]; first compound 0.005 µM): 0.704
- relative viability ([7]; first compound 0.05 µM): 0.405

Cell Line: ChaGo-K-1
- relative viability ([4]; first compound 0.5 µM): 0.241
